# The list shows a part of the results.
# Experiments:
# Assay in all cases: glycan array binding signal (z-score within array); higher = stronger binding
# Details in all cases: glycan notation: IUPAC condensed, linker removed
# [1] = molecular target: Fuc(a1-2)[Gal(a1-4)]Gal(b1-4)GlcNAc
# Procedure, shortened: (§1)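 Columns mapping to the same glycan were averaged after glycan names were converted to IUPAC-condensed notation. The data come from 3228 arrays in the Consortium for Functional Glycomics database, limited to those with an available protein sequence. Binding is reported as a within-array Z-score averaged across arrays of one protein sequence and across linkers.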
# [2] = molecular target: Fuc(a1-2)[GalNAc(a1-3)]Gal
# Procedure, shortened: as §1
# [3] = molecular target: Fuc(a1-2)[GalNAc(a1-3)]Gal(b1-3)GalNAc(a1-3)[Fuc(a1-2)]Gal(b1-4)GlcNAc
# Procedure, shortened: as §1
# [4] = molecular target: Fuc(a1-2)[GalNAc(a1-3)]Gal(b1-3)GalNAc(b1-3)Gal(a1-4)Gal(b1-4)Glc
# Procedure, shortened: as §1
# [5] = molecular target: Fuc(a1-2)[GalNAc(a1-3)]Gal(b1-3)GlcNAc
# Procedure, shortened: as §1
# [6] = molecular target: Fuc(a1-2)[GalNAc(a1-3)]Gal(b1-3)GlcNAc(b1-2)Man(a1-3)[Fuc(a1-2)[GalNAc(a1-3)]Gal(b1-3)GlcNAc(b1-2)Man(a1-6)]Man(b1-4)GlcNAc(b1-4)GlcNAc
# Procedure, shortened: as §1
# [7] = molecular target: Fuc(a1-2)[GalNAc(a1-3)]Gal(b1-3)GlcNAc(b1-2)Man(a1-3)[Fuc(a1-2)[GalNAc(a1-3)]Gal(b1-3)GlcNAc(b1-2)Man(a1-6)]Man(b1-4)GlcNAc(b1-4)[Fuc(a1-6)]GlcNAc
# Procedure, shortened: as §1
# [8] = molecular target: Fuc(a1-2)[GalNAc(a1-3)]Gal(b1-3)GlcNAc(b1-3)GalNAc
# Procedure, shortened: as §1
# [9] = molecular target: Fuc(a1-2)[GalNAc(a1-3)]Gal(b1-3)GlcNAc(b1-6)GalNAc
# Procedure, shortened: as §1
# [10] = molecular target: Fuc(a1-2)[GalNAc(a1-3)]Gal(b1-4)Glc
# Procedure, shortened: as §1
# [11] = molecular target: Fuc(a1-2)[GalNAc(a1-3)]Gal(b1-4)GlcNAc
# Procedure, shortened: as §1
# [12] = molecular target: Fuc(a1-2)[GalNAc(a1-3)]Gal(b1-4)GlcNAc(b1-2)Man
# Procedure, shortened: as §1
# [13] = molecular target: Fuc(a1-2)[GalNAc(a1-3)]Gal(b1-4)GlcNAc(b1-2)Man(a1-3)[Fuc(a1-2)[GalNAc(a1-3)]Gal(b1-4)GlcNAc(b1-2)Man(a1-6)]Man(b1-4)GlcNAc(b1-4)GlcNAc
# Procedure, shortened: as §1
# [14] = molecular target: Fuc(a1-2)[GalNAc(a1-3)]Gal(b1-4)GlcNAc(b1-2)Man(a1-3)[Fuc(a1-2)[GalNAc(a1-3)]Gal(b1-4)GlcNAc(b1-2)Man(a1-6)]Man(b1-4)GlcNAc(b1-4)[Fuc(a1-6)]GlcNAc
# Procedure, shortened: as §1
# [15] = molecular target: Fuc(a1-2)[GalNAc(a1-3)]Gal(b1-4)GlcNAc(b1-3)Gal(b1-4)GlcNAc
# Procedure, shortened: as §1
# [16] = molecular target: Fuc(a1-2)[GalNAc(a1-3)]Gal(b1-4)GlcNAc(b1-3)Gal(b1-4)GlcNAc(b1-3)Gal(b1-4)GlcNAc
# Procedure, shortened: as §1
# [17] = molecular target: Fuc(a1-2)[GalNAc(a1-3)]Gal(b1-4)GlcNAc(b1-3)GalNAc
# Procedure, shortened: as §1
# [18] = molecular target: Fuc(a1-2)[GalNAc(a1-3)]Gal(b1-4)GlcNAc(b1-3)[Fuc(a1-2)[GalNAc(a1-3)]Gal(b1-4)GlcNAc(b1-6)]GalNAc
# Procedure, shortened: as §1
# [19] = molecular target: Fuc(a1-2)[GalNAc(a1-3)]Gal(b1-4)GlcNAc(b1-6)GalNAc
# Procedure, shortened: as §1
# [20] = molecular target: Fuc(a1-2)[GalNAc(a1-3)]Gal(b1-4)[Fuc(a1-3)]GlcNAc
# Procedure, shortened: as §1
# [21] = molecular target: Fuc(a1-2)[GalNAc(a1-3)]Gal(b1-4)[Fuc(a1-3)]GlcNAc(b1-3)GalNAc
# Procedure, shortened: as §1
# [22] = molecular target: Fuc(a1-2)[GalNAc(a1-4)]Gal(b1-4)GlcNAc
# Procedure, shortened: as §1
# [23] = molecular target: Fuc(a1-2)[GalNAc(b1-3)]Gal
# Procedure, shortened: as §1
# Fuc(a1-3)GlcNAc = molecular target: Fuc(a1-3)GlcNAc
# Procedure, shortened: as §1
# [24] = molecular target: Fuc(a1-3)[Gal(b1-4)]Glc6S
# Procedure, shortened: as §1
# [25] = molecular target: Fuc(a1-3)[Gal(b1-4)]GlcNAc
# Procedure, shortened: as §1
# [26] = molecular target: Fuc(a1-3)[Gal(b1-4)]GlcNAc(b1-2)Man
# Procedure, shortened: as §1
# [27] = molecular target: Fuc(a1-3)[Gal(b1-4)]GlcNAc(b1-2)Man(a1-3)[Fuc(a1-3)[Gal(b1-4)]GlcNAc(b1-2)Man(a1-6)]Man(b1-4)GlcNAc(b1-4)GlcNAc
# Procedure, shortened: as §1
# [28] = molecular target: Fuc(a1-3)[Gal(b1-4)]GlcNAc(b1-2)Man(a1-3)[Fuc(a1-3)[Gal(b1-4)]GlcNAc(b1-2)Man(a1-6)]Man(b1-4)GlcNAc(b1-4)[Fuc(a1-6)]GlcNAc
# Procedure, shortened: as §1
# [29] = molecular target: Fuc(a1-3)[Gal(b1-4)]GlcNAc(b1-3)Gal(b1-3)[Fuc(a1-4)]GlcNAc
# Procedure, shortened: as §1
# [30] = molecular target: Fuc(a1-3)[Gal(b1-4)]GlcNAc(b1-3)Gal(b1-4)[Fuc(a1-3)]GlcNAc
# Procedure, shortened: as §1
# [31] = molecular target: Fuc(a1-3)[Gal(b1-4)]GlcNAc(b1-3)Gal(b1-4)[Fuc(a1-3)]GlcNAc(b1-3)Gal(b1-4)[Fuc(a1-3)]GlcNAc
# Procedure, shortened: as §1
# [32] = molecular target: Fuc(a1-3)[Gal(b1-4)]GlcNAc(b1-3)GalNAc
# Procedure, shortened: as §1
# [33] = molecular target: Fuc(a1-3)[Gal(b1-4)]GlcNAc(b1-6)GalNAc
# Procedure, shortened: as §1
# [34] = molecular target: Fuc(a1-3)[Gal(b1-4)]GlcNAc(b1-6)[Gal(b1-3)GlcNAc(b1-3)]Gal(b1-4)Glc
# Procedure, shortened: as §1
# [35] = molecular target: Fuc(a1-3)[Gal(b1-4)]GlcNAc6S
# Procedure, shortened: as §1
# [36] = molecular target: Fuc(a1-3)[Gal3S(b1-4)]Glc
# Procedure, shortened: as §1
# [37] = molecular target: Fuc(a1-3)[Gal3S(b1-4)]GlcNAc
# Procedure, shortened: as §1
binder,measurement,setting,value
GS7807F-bth-514-18-514 (Bacteroides thetaiotaomicron) (protein) AGSCTGNFEEYNTNQFQIHEADPSTLMKSMIETIVNIQQNDSQMMDQMVGQLGGYLTCANVWSGTNFGTFNQSDAWNAGPWNTNFEKIYGNFFQIQEATNESGHYYAFARMIRAITMLRVADCYGPMPYSQVKKGNFYVAYDTEEQVYKNIMEDFASAANVLYNYYKDTNGNAPLASNDPVFSGNYANWARLANSMRLRVAIRISTAYPEMAKENAEAAASHEAGLIEANNDNAMMDCGSQTNPYQLAAVSWGDLRVNANIVDYMNGYGDPRMSKYFNHSTFTGHTQEYVGMRSGEDGFAKSDVAGYSIPAITGTSKLLVFCAAETAFLRAEGKLKNWSVGNKSAKEYYEEGIKLSMEQYGTTMPDNYLTNTEKPTVSHNNDPRGHAYTISNTVAVAWNDNNEEENLQRIITQKWIANYPLGLEAWAEYRRTGYPELYPCIDNLSPSGVDSKRGMRRLRFPYTEVQNNHSNYQQGVSYLKNGGPDNEATDLSWGKTN,glycan array binding signal (z-score),[1],0.545
same,glycan array binding signal (z-score),[2],-0.251
same,glycan array binding signal (z-score),[3],-0.058
same,glycan array binding signal (z-score),[4],-0.111
same,glycan array binding signal (z-score),[5],0.079
same,glycan array binding signal (z-score),[6],-0.844
same,glycan array binding signal (z-score),[7],-0.684
same,glycan array binding signal (z-score),[8],0.416
same,glycan array binding signal (z-score),[9],-0.854
same,glycan array binding signal (z-score),[10],-0.891
same,glycan array binding signal (z-score),[11],-0.859
same,glycan array binding signal (z-score),[12],-0.825
same,glycan array binding signal (z-score),[13],1.47
same,glycan array binding signal (z-score),[14],0.216
same,glycan array binding signal (z-score),[15],-0.908
same,glycan array binding signal (z-score),[16],1.24
same,glycan array binding signal (z-score),[17],-0.428
same,glycan array binding signal (z-score),[18],-0.118
same,glycan array binding signal (z-score),[19],-0.866
same,glycan array binding signal (z-score),[20],0.161
same,glycan array binding signal (z-score),[21],1.09
same,glycan array binding signal (z-score),[22],2.23
same,glycan array binding signal (z-score),[23],3.2
same,glycan array binding signal (z-score),Fuc(a1-3)GlcNAc,-0.58
same,glycan array binding signal (z-score),[24],0.783
same,glycan array binding signal (z-score),[25],-0.617
same,glycan array binding signal (z-score),[26],-0.562
same,glycan array binding signal (z-score),[27],0.769
same,glycan array binding signal (z-score),[28],2.25
same,glycan array binding signal (z-score),[29],-0.42
same,glycan array binding signal (z-score),[30],-0.561
same,glycan array binding signal (z-score),[31],-0.795
same,glycan array binding signal (z-score),[32],-0.106
same,glycan array binding signal (z-score),[33],-0.328
same,glycan array binding signal (z-score),[34],-0.59
same,glycan array binding signal (z-score),[35],0.465
same,glycan array binding signal (z-score),[36],-0.297
same,glycan array binding signal (z-score),[37],-0.588

# Given with tabs: entries from further up.
binder	measurement	setting	value
GS7807F-bth-514-18-514 (Bacteroides thetaiotaomicron) (protein) AGSCTGNFEEYNTNQFQIHEADPSTLMKSMIETIVNIQQNDSQMMDQMVGQLGGYLTCANVWSGTNFGTFNQSDAWNAGPWNTNFEKIYGNFFQIQEATNESGHYYAFARMIRAITMLRVADCYGPMPYSQVKKGNFYVAYDTEEQVYKNIMEDFASAANVLYNYYKDTNGNAPLASNDPVFSGNYANWARLANSMRLRVAIRISTAYPEMAKENAEAAASHEAGLIEANNDNAMMDCGSQTNPYQLAAVSWGDLRVNANIVDYMNGYGDPRMSKYFNHSTFTGHTQEYVGMRSGEDGFAKSDVAGYSIPAITGTSKLLVFCAAETAFLRAEGKLKNWSVGNKSAKEYYEEGIKLSMEQYGTTMPDNYLTNTEKPTVSHNNDPRGHAYTISNTVAVAWNDNNEEENLQRIITQKWIANYPLGLEAWAEYRRTGYPELYPCIDNLSPSGVDSKRGMRRLRFPYTEVQNNHSNYQQGVSYLKNGGPDNEATDLSWGKTN	glycan array binding signal (z-score)	[8]	0.416
same	glycan array binding signal (z-score)	[9]	-0.854
